The experiment has as its target vitronectin (UniProt P04004). In words: ELISA; fibrinogen derivatives, collagen III, fibronectin or vitronectin immobilised on 96‐well plates in PBS overnight at 4 °C (10–200 μg mL^−1), blocked with 1% BSA/PBS; GPVI‐Fc2, GPVIex or control proteins in solution; bound GPVI detected with 1G5 and IRDye 800CW anti‐mouse IgG or with Alexa‐fluor 647 anti‐human Fc; binding to BSA subtracted; both purified. In general terms: ELISA stands for enzyme-linked immunosorbent assay.

Protein sequences, listed by entry. Tags and fused reporters are not part of them. Residues count along the entry.
UniProt P04004, residues 20-478: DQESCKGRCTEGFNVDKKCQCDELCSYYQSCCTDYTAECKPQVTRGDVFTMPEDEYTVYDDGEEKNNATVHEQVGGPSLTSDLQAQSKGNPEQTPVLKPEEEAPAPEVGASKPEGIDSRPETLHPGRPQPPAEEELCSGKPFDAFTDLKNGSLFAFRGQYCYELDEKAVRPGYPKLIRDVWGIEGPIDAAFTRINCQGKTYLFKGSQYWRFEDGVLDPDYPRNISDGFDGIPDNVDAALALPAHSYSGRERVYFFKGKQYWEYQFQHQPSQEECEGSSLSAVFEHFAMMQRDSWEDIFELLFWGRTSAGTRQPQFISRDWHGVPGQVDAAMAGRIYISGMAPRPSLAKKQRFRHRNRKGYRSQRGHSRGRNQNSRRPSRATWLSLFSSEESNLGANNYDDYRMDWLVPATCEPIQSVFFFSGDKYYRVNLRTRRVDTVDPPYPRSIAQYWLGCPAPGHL
UniProt Q9HCN6, residues 21-267: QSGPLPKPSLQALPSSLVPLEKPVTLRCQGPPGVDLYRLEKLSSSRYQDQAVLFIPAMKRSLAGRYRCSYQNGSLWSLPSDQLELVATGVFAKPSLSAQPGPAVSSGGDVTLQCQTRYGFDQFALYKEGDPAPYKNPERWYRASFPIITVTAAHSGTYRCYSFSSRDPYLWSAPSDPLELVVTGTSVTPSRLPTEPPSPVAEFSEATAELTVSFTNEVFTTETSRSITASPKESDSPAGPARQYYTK

No constants are given. Whether binding was seen depends on the method and setting.

For one substance, binding results are on record in PMC5838801.

With “GPVI‐Fc2 (dimeric Fc‐fusion protein of the GPVI extracellular domain) (from UniProt Q9HCN6 21-267) (Fc fusion)”, the binding entry is recorded as “no binding (tested: 50 μg mL^−1)”.
